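A cell line overexpressing EP4 prostanoid receptors, stimulated with a low (about EC15) PGE2 dose; cAMP read by HTRF FRET after a short room-temperature incubation. Compounds were tested at 20 µM final. A low (about EC15) PGE2 dose was present. Percent cAMP induction as a fraction of the 1 µM PGE2 response, averaged over three replicates; a higher value means more cAMP.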

Values are in %. Common to all entries: measured here: EP4 receptor counter-screen. This is a side read-out of the assay, for part of the compounds, not drawn at random.

CC(=O)N1c2ccccc2C(C)CC12CCCCC2 (stereo not drawn) [percent of 1 uM PGE2 response; plus low (about EC15) PGE2 agonist] gave cAMP induction 6.577%.
O=S(=O)(c1ccc(F)c(Cl)c1)N1CCCC1 [percent of 1 uM PGE2 response; plus low (about EC15) PGE2 agonist] gave cAMP induction 3.52%.
CCOC(=O)c1[nH]c2ccc(OC)cc2c1NS(=O)(=O)c1ccc(Cl)s1 [percent of 1 uM PGE2 response; plus low (about EC15) PGE2 agonist] gave cAMP induction -0.8267%.
COC(=O)CSc1nc(Cc2ccccc2)nc2ccccc12 [percent of 1 uM PGE2 response; plus low (about EC15) PGE2 agonist] gave cAMP induction 6.45%.
COC(=O)C1C(c2ccccc2)C(C(=O)OCc2ccco2)C1c1ccccc1 (stereo not drawn) [percent of 1 uM PGE2 response; plus low (about EC15) PGE2 agonist] gave cAMP induction -9.04%.
Cc1cc(C)c(S(=O)(=O)c2ccccc2)c(OC(=O)c2cc(F)c(F)cc2Cl)n1 [percent of 1 uM PGE2 response; plus low (about EC15) PGE2 agonist] gave cAMP induction -19.11%.
O=C(Nc1nc(-c2cccs2)c(-c2ccccc2)s1)c1ccco1 [percent of 1 uM PGE2 response; plus low (about EC15) PGE2 agonist] gave cAMP induction -9.96%.
O=S(=O)(c1ccc(F)cc1)c1snnc1-c1ccccc1 [percent of 1 uM PGE2 response; plus low (about EC15) PGE2 agonist] gave cAMP induction 1.957%.
CC1=CC2C(CC1=O)C(C)=CCC2C(C)C (stereo not drawn) [percent of 1 uM PGE2 response; plus low (about EC15) PGE2 agonist] gave cAMP induction -6.943%.
COC(=O)c1ccc(-n2nc(C(F)(F)F)c3c2-c2ccoc2CC3)cc1 [percent of 1 uM PGE2 response; plus low (about EC15) PGE2 agonist] gave cAMP induction -1.25%.
COc1ccc(-n2c(-c3ccccc3)nnc2-c2ccc(Cl)cc2)cc1 [percent of 1 uM PGE2 response; plus low (about EC15) PGE2 agonist] gave cAMP induction 4.743%.
CCc1ccccc1NC(=O)/C(=C/c1ccco1)c1ccccc1 [percent of 1 uM PGE2 response; plus low (about EC15) PGE2 agonist] gave cAMP induction -7.83%.
c1cncc(-c2nc(N3CCCCCC3)c3ccccc3n2)c1 [percent of 1 uM PGE2 response; plus low (about EC15) PGE2 agonist] gave cAMP induction -1.03%.
COc1cccc(OCC(=O)Nc2ccccc2-c2ccccc2)c1 [percent of 1 uM PGE2 response; plus low (about EC15) PGE2 agonist] gave cAMP induction -10.37%.
COCCn1c(SCC(=O)NCCc2ccccc2)nnc1-c1ccco1 [percent of 1 uM PGE2 response; plus low (about EC15) PGE2 agonist] gave cAMP induction 2.26%.
CC12CCC(C(=O)N(CSC(=S)N/N=C\c3ccccc3Cl)C1=O)C2(C)C (stereo not drawn) [percent of 1 uM PGE2 response; plus low (about EC15) PGE2 agonist] gave cAMP induction -11.46%.
CCn1c(COc2ccc(Cl)cc2)nnc1SCC(=O)Nc1ccc2c(c1)OCO2 [percent of 1 uM PGE2 response; plus low (about EC15) PGE2 agonist] gave cAMP induction -7.22%.
Cc1noc2ncnc(Sc3c(Cl)cccc3Cl)c12 [percent of 1 uM PGE2 response; plus low (about EC15) PGE2 agonist] gave cAMP induction 1.023%.
O=c1c(O)c(-c2ccccc2)oc2ccc3occc3c12 [percent of 1 uM PGE2 response; plus low (about EC15) PGE2 agonist] gave cAMP induction 2.747%.
COc1ccc(-c2nn3c(-c4ccccc4)nnc3s2)cc1 [percent of 1 uM PGE2 response; plus low (about EC15) PGE2 agonist] gave cAMP induction -12.2%.
Cc1ccc(S(=O)(=O)NCC(=O)N(c2ccccc2)C(C(=O)NCc2ccccc2)c2ccco2)cc1 (stereo not drawn) [percent of 1 uM PGE2 response; plus low (about EC15) PGE2 agonist] gave cAMP induction 2.49%.
Clc1ccc(-c2nc3ccccn3c2CN2CCCCC2)cc1 [percent of 1 uM PGE2 response; plus low (about EC15) PGE2 agonist] gave cAMP induction -2.093%.

Repeated from the top, 3 entries:

| structure | setting | cAMP induction (%) |
|---|---|---|
| `CC(=O)N1c2ccccc2C(C)CC12CCCCC2` (stereo not drawn) | percent of 1 uM PGE2 response; plus low (about EC15) PGE2 agonist | 6.577 |
| `O=S(=O)(c1ccc(F)c(Cl)c1)N1CCCC1` | percent of 1 uM PGE2 response; plus low (about EC15) PGE2 agonist | 3.52 |
| `CCOC(=O)c1[nH]c2ccc(OC)cc2c1NS(=O)(=O)c1ccc(Cl)s1` | percent of 1 uM PGE2 response; plus low (about EC15) PGE2 agonist | -0.8267 |

Data taken from PubChem BioAssay AID1080, deposited by Emory University Molecular Libraries Screening Center (2008).